At least one compound was matched to its structure with a doubt left.
Tests used:
[1] = tested on: NFκB canonical signaling activity; details: acute cardiovascular injury, literature; cited from earlier work
[2] = tested on: LDLR−/− mice, a CAVD mouse model; experiment: Echocardiography (pulsed-wave Doppler) of heart valve function in CAVD mouse model; format: in vivo; details: female vs male LDLR−/− mice, 8 weeks treatment
Description: Animals. Mouse experiments were performed according to the guidelines of the National Institute of Health and the protocols approved by the Institutional Animal Care and Use Committee of Cornell University. The mice used were LDLR (low-density lipoprotein receptor)-/- mice from Jackson Labs (No. 2270). Mice were fed a high-fat diet (Harlan Teklad No. TD88137, 42% of calories from fat, 0.25% cholesterol). Age-matched C57BL6J mice were obtained from Jackson Laboratories (Bar Harbour, ME) for control study. Drug administration. The NFκB pathway was intervened by administering either BAY11-7082 (injected intraperitoneal 3 times per week at 5 mg/kg) or tetrahydrobiopterin (BH4) (oral gavage at 10 mg/kg/day) to LDLR/mice, for 8 weeks after giving them high fat diet for 20 weeks Echocardiography. Transthoracic echocardiography was performed under 2% isofluorane anaesthesia, with M[…] and MS5[…] probes connected to a Vevo 2100 system (VisualSonics). Heart valve function was assessed at 6 months and 8 months of age using according to established procedures. Mice were anesthetized using inhaled 2% isoflurane. […] Cardiac hemodynamic parameters, such as aortic valve peak velocity and left ventricle ejection fraction, were measured using doppler ultrasound before and after BAYT 1-7082 and BH4 administration. […]

[3] = tested on: LDLR−/− mice, a CAVD mouse model; experiment: Fibro-osteogenic gene profiling (Q-PCR) on aortic valve tissues; format: in vivo; details: 8 weeks treatment after 20 weeks high fat diet
Description: Animals. Mouse experiments were performed according to the guidelines of the National Institute of Health and the protocols approved by the Institutional Animal Care and Use Committee of Cornell University. The mice used were LDLR (low-density lipoprotein receptor)−/− mice from Jackson Labs (No. 2270). Mice were fed a high-fat diet (Harlan Teklad No. TD88137, 42% of calories from fat, 0.25% cholesterol). Age-matched C57BL6J mice were obtained from Jackson Laboratories (Bar Harbour, ME) for control study. Drug administration. The NFκB pathway was intervened by administering either BAY11-7082 (injected intraperitoneal 3 times per week at 5 mg/kg) or tetrahydrobiopterin (BH4) (oral gavage at 10 mg/kg/day) to LDLR/mice, for 8 weeks after giving them high fat diet for 20 weeks Q-PCR analysis. Mouse Aortic valve samples were homogenized, total RNA was isolated using Takarabio RNA, purified and further quantified via Nanodrop. […] Quantitative RT-PCR was performed on all samples using SYBR Green PCR master mix (Applied Biosystems, Foster City, CA) and a CFX96 or MiniOpticon Real-Time PCR Detection System (Bio-Rad, Hercules, CA). […] Cardiac hemodynamic parameters, such as aortic valve peak velocity and left ventricle ejection fraction, were measured using doppler ultrasound before and after BAYT 1-7082 and BH4 administration. […]

Row | SMILES | treatment of septic shock or ischemic reperfusion injury [1] | hemodynamic effect by sex [2] | collagen type 1A (Col1A) mRNA expression in aortic valve tissue [3] | intercellular adhesion molecule 1 (ICAM1) mRNA expression in aortic valve tissue [3]
1 | S=C(S)N1CCCC1 [pyrrolidine-dithiocarbamate] | effective |  |  | 
2 | C[C@H](O)[C@H](O)[C@H]1CNc2nc(N)[nH]c(=O)c2N1 [BH4, tetrahydrobiopterin] |  | affected male mice more profoundly than female mice | significantly decreased | significantly decreased

From patent US20240216325A1, “NUCLEAR FACTOR KAPPA B PATHWAY INHIBITION TO ARREST CALCIFIC AORTIC STENOSIS” (CORNELL UNIVERSITY, priority 2019, published 2024)
